{
  "source": "paper PMC7819943",
  "about": "“Rice protein-binding microarrays: a tool to detect cis-acting elements near promoter regions in rice”",
  "note": "Some of the results follow.",
  "data": [
    {"target": "T1, OsSMF1 (Oryza sativa, UniProt Q6ZLB0 1-436)", "T1 sequence": "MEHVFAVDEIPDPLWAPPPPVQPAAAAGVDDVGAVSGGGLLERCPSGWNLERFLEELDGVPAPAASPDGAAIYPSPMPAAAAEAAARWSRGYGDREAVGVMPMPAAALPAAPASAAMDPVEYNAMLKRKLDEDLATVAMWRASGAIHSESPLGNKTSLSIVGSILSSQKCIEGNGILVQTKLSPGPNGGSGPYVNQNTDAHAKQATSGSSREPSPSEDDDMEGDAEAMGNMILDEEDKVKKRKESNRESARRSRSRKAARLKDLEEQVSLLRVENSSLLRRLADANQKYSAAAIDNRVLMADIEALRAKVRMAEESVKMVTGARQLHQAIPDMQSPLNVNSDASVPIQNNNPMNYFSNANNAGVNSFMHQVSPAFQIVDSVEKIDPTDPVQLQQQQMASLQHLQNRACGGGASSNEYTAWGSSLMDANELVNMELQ", "assay": "protein-binding microarray (RPBM); PBS, 2% BSA, 51.3 ng/ul salmon testes DNA, 50 uM zinc acetate, 200 nM TF, 25 C, 1 h; high values mean tight binding", "conditions": "protein: recombinant; tags: N-terminal polyhistidine and DsRed monomer fusion (pET32a); chain copies: 2; label: CyDye5-dUTP incorporated in the synthesized complementary strand; 3' TTTTT single-stranded linker to array surface; dsDNA, one strand shown", "in_short": "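Ni–NTA purification followed expression in E. coli BL21-CodonPlus of transcription factors fused N-terminally to a polyhistidine tag and DsRed. At 200 nM in PBS with 2% BSA, salmon testes DNA and 50 µM zinc acetate, the protein was incubated for 1 h at 25 °C with a custom Agilent array that had been primer-extended with Cy5-dUTP and blocked with 2% BSA. After washing, the array was read on an Axon 4000B scanner. The binding signal is per-feature fluorescence intensity in arbitrary units.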", "values": [
      {"sequence": "CAGAAGGATATATGTTTTATAATTTATTCAAATACTAGATCGGAGTCACCTAGTGCAG", "binding signal": "41400 fluorescence intensity (a.u.)"},
      {"sequence": "CAGAGTTTGTTACTAAAGGAGAAGGACAGCCATGTAGGCACGGAGTCACCTAGTGCAG", "binding signal": "3630 fluorescence intensity (a.u.)"},
      {"sequence": "TTGACAAAGATGACTAGCGGTGTCCATAAATTTGTTCTCACGGAGTCACCTAGTGCAG", "binding signal": "34800 fluorescence intensity (a.u.)"},
      {"sequence": "AAACTTCCAACTTTTCCGTCACATCGACACACATAAACTTCGGAGTCACCTAGTGCAG", "binding signal": "3240 fluorescence intensity (a.u.)"},
      {"sequence": "GTCAAATTCTAGTGAGAATACTGTGAATTTCATGGTTCCACGGAGTCACCTAGTGCAG", "binding signal": "11100 fluorescence intensity (a.u.)"},
      {"sequence": "TACAGCCGTTGACAGTTAACTGAACTTTCACTAGTTCAATCGGAGTCACCTAGTGCAG", "binding signal": "3190 fluorescence intensity (a.u.)"},
      {"sequence": "GGCGCATCACTTCCCTCTGTCTCCGAGCTTACTATTTTATCGGAGTCACCTAGTGCAG", "binding signal": "28500 fluorescence intensity (a.u.)"},
      {"sequence": "AATTTCTCAGATAATGACACATGATCATAGGAATTCAACCCGGAGTCACCTAGTGCAG", "binding signal": "21300 fluorescence intensity (a.u.)"},
      {"sequence": "GAATGACTCAATTAGTCCGAATGACTGAAATTCCACGGGGCGGAGTCACCTAGTGCAG", "binding signal": "3330 fluorescence intensity (a.u.)"},
      {"sequence": "AAGACACAAGGTGCACGTCACTGATCAGATCACTGACGCACGGAGTCACCTAGTGCAG", "binding signal": "5420 fluorescence intensity (a.u.)"},
      {"sequence": "AGTAGTTTATCTCTTAACATTAGTCCATACTATTAATATTCGGAGTCACCTAGTGCAG", "binding signal": "3260 fluorescence intensity (a.u.)"},
      {"sequence": "GTGCGCGGCGGCGGCGTGGAGTACGCGCACCACCAGACGGCGGAGTCACCTAGTGCAG", "binding signal": "4920 fluorescence intensity (a.u.)"},
      {"sequence": "TTGGGGAAAAGTTTTGAGTTTGATTGTCACATCGGATATACGGAGTCACCTAGTGCAG", "binding signal": "53000 fluorescence intensity (a.u.)"},
      {"sequence": "CCTCTCGTCTCGTCTCGCACGCACCCGCCACGTCCACCCCCGGAGTCACCTAGTGCAG", "binding signal": "8350 fluorescence intensity (a.u.)"},
      {"sequence": "TTACCCACAATTTTAGGTTCTCATCTGCCACCACATATTTCGGAGTCACCTAGTGCAG", "binding signal": "21500 fluorescence intensity (a.u.)"},
      {"sequence": "CATGAGAGATATAAAACACATGCGTCATTCTCTTTGATCTCGGAGTCACCTAGTGCAG", "binding signal": "5120 fluorescence intensity (a.u.)"},
      {"sequence": "CGGCTGCGGTAGGAGCTGAGCATGACGAGGAGGGCGAGTGCGGAGTCACCTAGTGCAG", "binding signal": "3470 fluorescence intensity (a.u.)"},
      {"sequence": "CGTGCTCCTCAACGTTTACACAGAGGTGACAGAGCAGAACCGGAGTCACCTAGTGCAG", "binding signal": "4160 fluorescence intensity (a.u.)"},
      {"sequence": "GTCGGGCGAAGAAGCCCGACTTCCCACCCACTCTCCCCGTCGGAGTCACCTAGTGCAG", "binding signal": "21400 fluorescence intensity (a.u.)"},
      {"sequence": "CGAGACGCCGCCGGCGGTGAAGGCCTTGTCGGAGGCAATGCGGAGTCACCTAGTGCAG", "binding signal": "22700 fluorescence intensity (a.u.)"},
      {"sequence": "CGCGGCGAGGTTGACCCCGCCATCGTCGCCACCGTCCTCGCGGAGTCACCTAGTGCAG", "binding signal": "3520 fluorescence intensity (a.u.)"},
      {"sequence": "GATCACATGAATGACATAAGCAACATGACGAGCTATGAACCGGAGTCACCTAGTGCAG", "binding signal": "4340 fluorescence intensity (a.u.)"},
      {"sequence": "CGATGGTAGAAAAGGGTCTACGTAGTACTTAGAATCACGGCGGAGTCACCTAGTGCAG", "binding signal": "3160 fluorescence intensity (a.u.)"},
      {"sequence": "CGAGTGTACATATTTATACCCATGGGTAGATACTAGTCCTCGGAGTCACCTAGTGCAG", "binding signal": "3540 fluorescence intensity (a.u.)"},
      {"sequence": "TTATTACTTGGTCATTCGACTCCTTCGTCTTCCTGCGCCCCGGAGTCACCTAGTGCAG", "binding signal": "25800 fluorescence intensity (a.u.)"},
      {"sequence": "CCAATTGCTCCCTAAGCTAGGAATATATCCTACGAAGTAGCGGAGTCACCTAGTGCAG", "binding signal": "5420 fluorescence intensity (a.u.)"},
      {"sequence": "GAATACCAAGAACGACGTCATACAAGACTGACGTGCGGTCCGGAGTCACCTAGTGCAG", "binding signal": "5690 fluorescence intensity (a.u.)"},
      {"sequence": "TTGTATTTTGGAAATATGACGCATTAGATGTTTTATATATCGGAGTCACCTAGTGCAG", "binding signal": "3570 fluorescence intensity (a.u.)"},
      {"sequence": "ACCAAGAAGTCTACACAATGTCAGTGTCAGTTGTAGTGAGCGGAGTCACCTAGTGCAG", "binding signal": "3200 fluorescence intensity (a.u.)"},
      {"sequence": "TTAACCAAATGTTGTCATAACATTTATAACCAAAGTGAGTCGGAGTCACCTAGTGCAG", "binding signal": "3480 fluorescence intensity (a.u.)"},
      {"sequence": "CCTCTTCTCCTTCTCTGTGCCTTGTCGACGAGGCGTGGCCCGGAGTCACCTAGTGCAG", "binding signal": "4400 fluorescence intensity (a.u.)"},
      {"sequence": "AAGGGAAAATAATGGAGAAAATAATGACGGAGGAGTGGGGCGGAGTCACCTAGTGCAG", "binding signal": "3510 fluorescence intensity (a.u.)"},
      {"sequence": "GCAGCTGCATATGGCATCGACACCAATTGGTACCTCGACACGGAGTCACCTAGTGCAG", "binding signal": "4080 fluorescence intensity (a.u.)"},
      {"sequence": "CCCAAGTCCCCGCCACATCCGACTCTTTATATACCTCCCTCGGAGTCACCTAGTGCAG", "binding signal": "3350 fluorescence intensity (a.u.)"},
      {"sequence": "CTTTCGTTTGTGCGCATCAGCACATGCCCGCGTTGCACGTCGGAGTCACCTAGTGCAG", "binding signal": "3370 fluorescence intensity (a.u.)"},
      {"sequence": "TCTCTTAGGTGCCATACCTCTATGCTAGAGATGAAAAGCTCGGAGTCACCTAGTGCAG", "binding signal": "24600 fluorescence intensity (a.u.)"},
      {"sequence": "GTATGGCGTCAAGGAGCCGCGCCATGTCCTGGTCGTGACGCGGAGTCACCTAGTGCAG", "binding signal": "4160 fluorescence intensity (a.u.)"},
      {"sequence": "GTTTCCCCTCGTCTTCATCATCATCGTCAGCAGCAGCAGCCGGAGTCACCTAGTGCAG", "binding signal": "8030 fluorescence intensity (a.u.)"},
      {"sequence": "CGGCAGGTTTGCCCACTCCTGATTGGTCCACGTGGAGCTGCGGAGTCACCTAGTGCAG", "binding signal": "12200 fluorescence intensity (a.u.)"},
      {"sequence": "GACACACGTAATCTCAACCATCCGATTGCCATATCCAACTCGGAGTCACCTAGTGCAG", "binding signal": "3830 fluorescence intensity (a.u.)"},
      {"sequence": "TCGTCGACGTGGCGTTGACGTGGCGGTATTGACCTAATCTCGGAGTCACCTAGTGCAG", "binding signal": "37900 fluorescence intensity (a.u.)"},
      {"sequence": "GAGCAAAAGTCGCTCTTAAAACTATTAAAGGTGTTATTTTCGGAGTCACCTAGTGCAG", "binding signal": "35800 fluorescence intensity (a.u.)"}
    ]}
  ]
}
